Results from article PMC5996148.
The other results are listed elsewhere or left out.

Legend:
Test in all cases: protein microarray (ProtoArray v5.0), streptavidin-Alexa Fluor 647
Details in all cases: 3'-biotin; 20 mM Tris (pH 7.5), 5 mM MgCl2, 100 mM KCl, 0.1% Tween-20, A/T-rich and random oligonucleotide blockers; temperature not stated; high values mean tight binding
[1] = test system: CLDN14 (human)
[2] = test system: CLDN15 (human)
[3] = test system: CLDN18 (human)
[4] = test system: CLDN2 (human)
[5] = test system: CLDN20 (human)
[6] = test system: CLDN3 (human)
[7] = test system: CLDN7 (human)
[8] = test system: CLEC10A (human)
[9] = test system: CLEC4D (human)
[10] = test system: CLEC4E (human)

GGGAGGCTGAGGCAGG [G4-1 biotinylated (PQS2)]
binding signal [1]: -0.311 z-score | binding signal [2]: -0.308 z-score | binding signal [3]: -0.36 z-score | binding signal [4]: -0.345 z-score | binding signal [5]: -0.289 z-score | binding signal [6]: -0.275 z-score | binding signal [7]: -0.291 z-score | binding signal [8]: -0.279 z-score | binding signal [9]: -0.331 z-score | binding signal [10]: -0.304 z-score
